Test results: PMC12001115, “Double prenylation of budding yeast Ykt6 regulates cell wall integrity and autophagy” (The Journal of Biological Chemistry, 2025)
No constants are given. Whether binding was seen depends on the method and setting. Binding seen in cells or lysates may run through a third protein. Here binding means that the protein was enriched with, or labelled near, the bait; the list need not be complete. For some of these results: No binding means not detected with the bait. Where a sequence is shown, tags or fusion partners need not be part of it.

By UniProt entry, the sequences of proteins in these tests, tags left out.
UniProt P01123: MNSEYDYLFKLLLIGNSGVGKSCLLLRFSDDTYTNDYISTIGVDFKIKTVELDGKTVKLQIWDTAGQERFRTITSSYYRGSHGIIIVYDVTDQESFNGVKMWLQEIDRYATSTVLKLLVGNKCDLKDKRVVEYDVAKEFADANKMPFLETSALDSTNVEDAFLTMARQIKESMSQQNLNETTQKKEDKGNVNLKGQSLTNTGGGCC

T1: Bet2-FLAG (budding yeast (S. cerevisiae)) (UniProt P20133)
T1 sequence: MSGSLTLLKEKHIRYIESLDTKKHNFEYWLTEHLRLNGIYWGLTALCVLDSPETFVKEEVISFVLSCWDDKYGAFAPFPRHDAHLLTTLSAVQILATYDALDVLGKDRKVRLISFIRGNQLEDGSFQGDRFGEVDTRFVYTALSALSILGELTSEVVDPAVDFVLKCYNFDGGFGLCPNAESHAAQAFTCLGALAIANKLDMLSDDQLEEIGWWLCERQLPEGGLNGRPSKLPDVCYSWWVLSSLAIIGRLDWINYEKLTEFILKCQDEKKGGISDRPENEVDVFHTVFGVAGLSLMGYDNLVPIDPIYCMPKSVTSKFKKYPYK

T2: Ecm9-FLAG (budding yeast (S. cerevisiae)) (UniProt Q02202)
T2 sequence: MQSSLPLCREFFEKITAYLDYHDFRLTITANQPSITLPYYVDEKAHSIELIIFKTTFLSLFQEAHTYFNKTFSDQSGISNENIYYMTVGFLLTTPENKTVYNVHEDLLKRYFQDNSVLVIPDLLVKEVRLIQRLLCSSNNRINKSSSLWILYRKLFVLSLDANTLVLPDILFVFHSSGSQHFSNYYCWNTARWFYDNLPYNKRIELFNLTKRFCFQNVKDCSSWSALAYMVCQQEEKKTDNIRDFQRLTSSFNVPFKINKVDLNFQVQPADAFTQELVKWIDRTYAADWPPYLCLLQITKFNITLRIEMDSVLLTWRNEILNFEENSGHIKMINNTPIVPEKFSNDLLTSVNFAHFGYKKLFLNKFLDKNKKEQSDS

B1: Ypt51 (protein, UniProt P36017 1-210)
chain: MNTSVTSIKLVLLGEAAVGKSSIVLRFVSNDFAENKEPTIGAAFLTQRVTINEHTVKFEIWDTAGQERFASLAPMYYRNAQAALVVYDVTKPQSFIKARHWVKELHEQASKDIIIALVGNKIDMLQEGGERKVAREEGEKLAEEKGLLFFETSAKTGENVNDVFLGIGEKIPLKTAEEQNSASNERESNNQRVDLNAANDGTSANSACSC
B2: Bet4 (protein, UniProt Q00618 1-327)
chain: MHGIKRKQWTKELLRQKRVQDEKKIYDYRSLTENVLNMRDEKIYSIEALKKTSELLEKNPEFNAIWNYRRDIIASLASELEIPFWDKELVFVMMLLKDYPKVYWIWNHRLWVLKHYPTSSPKVWQTELAVVNKLLEQDARNYHGWHYRRIVVGNIESITNKSLDKEEFEYTTIKINNNISNYSAWHQRVQIISRMFQKGEVGNQKEYIRTEISYIINAMFTDAEDQSVWFYIKWFIKNDIVCKTLDEQEYLKMLKDLRENILLINNDEIEFSGKQNIWCLKILLVLEDILEEKEALTERSSEQYLVQLIDADPLRKNRYLHLLEQHK
B3: Mrs6 (protein, UniProt P32864 1-603)
chain: MLSPERRPSMAERRPSFFSFTQNPSPLVVPHLAGIEDPLPATTPDKVDVLIAGTGMVESVLAAALAWQGSNVLHIDKNDYYGDTSATLTVDQIKRWVNEVNEGSVSCYKNAKLYVSTLIGSGKYSSRDFGIDLSPKILFAKSDLLSILIKSRVHQYLEFQSLSNFHTYENDCFEKLTNTKQEIFTDQNLPLMTKRNLMKFIKFVLNWEAQTEIWQPYAERTMSDFLGEKFKLEKPQVFELIFSIGLCYDLNVKVPEALQRIRRYLTSFDVYGPFPALCSKYGGPGELSQGFCRSAAVGGATYKLNEKLVSFNPTTKVATFQDGSKVEVSEKVIISPTQAPKDSKHVPQQQYQVHRLTCIVENPCTEWFNEGESAAMVVFPPGSLKSGNKEVVQAFILGAGSEICPEGTIVWYLSTTEQGPRAEMDIDAALEAMEMALLRESSSGLENDEEIVQLTGNGHTIVNSVKLGQSFKEYVPRERLQFLFKLYYTQYTSTPPFGVVNSSFFDVNQDLEKKYIPGASDNGVIYTTMPSAEISYDEVVTAAKVLYEKIVGSDDDFFDLDFEDEDEIQASGVANAEQFENAIDDDDDVNMEGSGEFVGEMEI
B4: Ecm9 (protein, UniProt Q02202 1-377)
chain: T2 sequence
B5: Ram1 (protein, UniProt P22007 1-431)
chain: MRQRVGRSIARAKFINTALLGRKRPVMERVVDIAHVDSSKAIQPLMKELETDTTEARYKVLQSVLEIYDDEKNIEPALTKEFHKMYLDVAFEISLPPQMTALDASQPWMLYWIANSLKVMDRDWLSDDTKRKIVDKLFTISPSGGPFGGGPGQLSHLASTYAAINALSLCDNIDGCWDRIDRKGIYQWLISLKEPNGGFKTCLEVGEVDTRGIYCALSIATLLNILTEELTEGVLNYLKNCQNYEGGFGSCPHVDEAHGGYTFCATASLAILRSMDQINVEKLLEWSSARQLQEERGFCGRSNKLVDGCYSFWVGGSAAILEAFGYGQCFNKHALRDYILYCCQEKEQPGLRDKPGAHSDFYHTNYCLLGLAVAESSYSCTPNDSPHNIKCTPDRLIGSSKLTDVNPVYGLPIENVRKIIHYFKSNLSSPS
B6: Cdc43 (protein, UniProt P18898 1-376)
chain: MCQATNGPSRVVTKKHRKFFERHLQLLPSSHQGHDVNRMAIIFYSISGLSIFDVNVSAKYGDHLGWMRKHYIKTVLDDTENTVISGFVGSLVMNIPHATTINLPNTLFALLSMIMLRDYEYFETILDKRSLARFVSKCQRPDRGSFVSCLDYKTNCGSSVDSDDLRFCYIAVAILYICGCRSKEDFDEYIDTEKLLGYIMSQQCYNGAFGAHNEPHSGYTSCALSTLALLSSLEKLSDKFKEDTITWLLHRQVSSHGCMKFESELNASYDQSDDGGFQGRENKFADTCYAFWCLNSLHLLTKDWKMLCQTELVTNYLLDRTQKTLTGGFSKNDEEDADLYHSCLGSAALALIEGKFNGELCIPQEIFNDFSKRCCF

Target: T1, Bet2-FLAG (budding yeast (S. cerevisiae))
Test: affinity purification with mass spectrometry; anti-FLAG antibody on protein G magnetic beads; cytosolic fraction (200,000g) of yeast cells expressing Ecm9-FLAG or Bet2-FLAG or control cells; buffer B (50 mM HEPES-KOH pH 7.4, 100 mM NaCl, 5 mM MgCl2, 1 mM DTT); DIA LC-MS/MS

binding | Molecule
binds | Ypt1 (from UniProt P01123 1-206)
binds | B1
binds | B2
binds | B3
binds | B4

Target: T2, Ecm9-FLAG (budding yeast (S. cerevisiae))
Test: as above

binding | Molecule
no binding | B5
no binding | B6
